Results reported in patent EP0687181B1, “USE OF THYMOSIN FOR TREATING HEPATITIS C IN NON-RESPONDERS TO INTERFERON TREATMENT” (ALPHA 1 BIOMEDICALS, INC., priority 1993, dated 2001).
Not every detail of the peptide structures is certain; ends, links or a residue may be inferred. Where no end group is shown, it is not given here.

Assays:
Hepatitis C = experiment: Treatment of Hepatitis C patients with Thymosin α-1 during α-IFN administration (Example 6); assay type: in vivo, human patients; conditions: after 6 months
[1] = tested on: Woodchuck Hepatitis Virus; conditions: woodchuck infected with Woodchuck Hepatitis Virus; cited from earlier work
hepatitis B virus (HBV) = conditions: treated for a year, cited from earlier work
[2] = tested on: natural killer-cell activity; conditions: THNα1 together with interferon; immunosuppressed mice; cited from earlier work
[3] = tested on: nonsmall cell lung cancer; conditions: cited from earlier work

## Ac-SDAAVDTSSEITTKDLKEKKEVVEEAEN [Thymosin α-1]
Hepatitis C; six additional Hepatitis C patients treated as above, threshold not achieved
  reduction of serum ALT: < 50%
Hepatitis C; six other Hepatitis C patients treated as above
  response to treatment (serum ALT levels reduced to normal): complete response
Hepatitis C; three additional Hepatitis C patients treated as above
  serum ALT levels reduced: 50%
Hepatitis C; two patients, previous non-responders to α-interferon, 1 mg s.c. twice weekly with 2 million units α-IFN three times weekly
  reduction of serum alanine transaminase (ALT): 50%
[1]
  clinical parameters: no improvement
  viral DNA replication: suppressed
Hepatitis B virus (HBV); pooled THNα1 (5 patients) and TF-5 (2 patients)
  patients with reduced levels of serum HBV DNA: 6 of the 7
Hepatitis B virus (HBV); pooled THNα1 and TF-5 patients
  patients initially positive for serum hepatitis B surface antigen (HbsAg) who cleared this antigen: 5 of 6
Hepatitis B virus (HBV); THNα1 5 patients, TF-5 2 patients
  serum ALT: marked decrease
[2]
  effect on natural killer-cell activity: synergistic effect
[3]; after a course of radiotherapy
  radiation-suppressed immune function: some restoration
[3]; both THNα1 treatment groups versus placebo group
  Relapse-free survival and overall survival: greater
[3]; in vivo
  T-cell numbers: no increase
